According to PMC6028986:
These are yes or no findings as the source states them, for the method shown. In cells and extracts the contact can be indirect. Some binding calls cover weakened binding; strength is not graded here. Where a sequence is shown, tags or fusion partners need not be part of it.

The chains behind the UniProt entries cited, without tags or fusion partners.
UniProt Q9Y6G5: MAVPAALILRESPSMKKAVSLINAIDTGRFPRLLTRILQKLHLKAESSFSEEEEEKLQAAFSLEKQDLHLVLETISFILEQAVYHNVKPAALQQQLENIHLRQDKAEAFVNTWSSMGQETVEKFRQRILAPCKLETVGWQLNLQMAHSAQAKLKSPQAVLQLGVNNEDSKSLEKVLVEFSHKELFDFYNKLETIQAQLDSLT

B1: β-HA ENaC (protein, UniProt P51168 1-640)
chain: MHVKKYLLKGLHRLQKGPGYTYKELLVWYCDNTNTHGPKRIICEGPKKKAMWFLLTLLFAALVCWQWGIFIRTYLSWEVSVSLSVGFKTMDFPAVTICNASPFKYSKIKHLLKDLDELMEAVLERILAPELSHANATRNLNFSIWNHTPLVLIDERNPHHPMVLDLFGDNHNGLTSSSASEKICNAHGCKMAMRLCSLNRTQCTFRNFTSATQALTEWYILQATNIFAQVPQQELVEMSYPGEQMILACLFGAEPCNYRNFTSIFYPHYGNCYIFNWGMTEKALPSANPGTEFGLKLILDIGQEDYVPFLASTAGVRLMLHEQRSYPFIRDEGIYAMSGTETSIGVLVDKLQRMGEPYSPCTVNGSEVPVQNFYSDYNTTYSIQACLRSCFQDHMIRNCNCGHYLYPLPRGEKYCNNRDFPDWAHCYSDLQMSVAQRETCIGMCKESCNDTQYKMTISMADWPSEASEDWIFHVLSQERDQSTNITLSRKGIVKLNIYFQEFNYRTIEESAANNIVWLLSNLGGQFGFWMGGSVLCLIEFGEIIIDFVWITIIKLVALAKSLRQRRAQASYAGPPPTVAELVEAHTNFGFQPDTAPRSPNTGPYPSEQALPIPGTPPPNYDSLRLQPLDVIESDSEGDAI
B2: γ-HA ENaC (protein, UniProt P51170 1-649)
chain: MAPGEKIKAKIKKNLPVTGPQAPTIKELMRWYCLNTNTHGCRRIVVSRGRLRRLLWIGFTLTAVALILWQCALLVFSFYTVSVSIKVHFRKLDFPAVTICNINPYKYSTVRHLLADLEQETREALKSLYGFPESRKRREAESWNSVSEGKQPRFSHRIPLLIFDQDEKGKARDFFTGRKRKVGGSIIHKASNVMHIESKQVVGFQLCSNDTSDCATYTFSSGINAIQEWYKLHYMNIMAQVPLEKKINMSYSAEELLVTCFFDGVSCDARNFTLFHHPMHGNCYTFNNRENETILSTSMGGSEYGLQVILYINEEEYNPFLVSSTGAKVIIHRQDEYPFVEDVGTEIETAMVTSIGMHLTESFKLSEPYSQCTEDGSDVPIRNIYNAAYSLQICLHSCFQTKMVEKCGCAQYSQPLPPAANYCNYQQHPNWMYCYYQLHRAFVQEELGCQSVCKEACSFKEWTLTTSLAQWPSVVSEKWLLPVLTWDQGRQVNKKLNKTDLAKLLIFYKDLNQRSIMESPANSIEMLLSNFGGQLGLWMSCSVVCVIEIIEVFFIDFFSIIARRQWQKAKEWWAWKQAPPCPEAPRSPQGQDNPALDIDDDLPTFNSALHLPPALGTQVPGTPPPKYNTLRLERAFSNQLTDTQMLDEL
B3: α-HA ENaC (protein, UniProt P37088 1-669)
chain: MEGNKLEEQDSSPPQSTPGLMKGNKREEQGLGPEPAAPQQPTAEEEALIEFHRSYRELFEFFCNNTTIHGAIRLVCSQHNRMKTAFWAVLWLCTFGMMYWQFGLLFGEYFSYPVSLNINLNSDKLVFPAVTICTLNPYRYPEIKEELEELDRITEQTLFDLYKYSSFTTLVAGSRSRRDLRGTLPHPLQRLRVPPPPHGARRARSVASSLRDNNPQVDWKDWKIGFQLCNQNKSDCFYQTYSSGVDAVREWYRFHYINILSRLPETLPSLEEDTLGNFIFACRFNQVSCNQANYSHFHHPMYGNCYTFNDKNNSNLWMSSMPGINNGLSLMLRAEQNDFIPLLSTVTGARVMVHGQDEPAFMDDGGFNLRPGVETSISMRKETLDRLGGDYGDCTKNGSDVPVENLYPSKYTQQVCIHSCFQESMIKECGCAYIFYPRPQNVEYCDYRKHSSWGYCYYKLQVDFSSDHLGCFTKCRKPCSVTSYQLSAGYSRWPSVTSQEWVFQMLSRQNNYTVNNKRNGVAKVNIFFKELNYKTNSESPSVTMVTLLSNLGSQWSLWFGSSVLSVVEMAELVFDLLVIMFLMLLRRFRSRYWSPGRGGRGAQEVASTLASSPPSHFCPHPMSLSLSQPGPAPSPALTAPPPAYATLGPRPSPGGSAGASSSTCPLGGP

What follows are binders tested against GST-COMMD10 (UniProt Q9Y6G5) (assay: pull-down; approximately 50 μg of GST or GST fusion protein on glutathione-agarose beads incubated 3 h at 4°C with lysate of transfected COS7 cells (TBS: 10 mM Tris pH 8.0, 150 mM NaCl, 1% Triton X-100, protease inhibitors; pre-cleared with GST alone); four washes in lysis buffer; anti-HA Western blot; only the target purified).

binding, binds:
B1, B2, B3
